Data from paper PMC2861688.
Results are given in words; binding and its absence hold for the method and conditions named. In cells and extracts the contact can be indirect. Some entries that bind do so weakly or less than the wild type.

Chains of the proteins cited; added tags and fusions are not shown. Lines headed by an entry give the natural chain unless they say otherwise; changes in a name come on top.
UniProt Q9Y297: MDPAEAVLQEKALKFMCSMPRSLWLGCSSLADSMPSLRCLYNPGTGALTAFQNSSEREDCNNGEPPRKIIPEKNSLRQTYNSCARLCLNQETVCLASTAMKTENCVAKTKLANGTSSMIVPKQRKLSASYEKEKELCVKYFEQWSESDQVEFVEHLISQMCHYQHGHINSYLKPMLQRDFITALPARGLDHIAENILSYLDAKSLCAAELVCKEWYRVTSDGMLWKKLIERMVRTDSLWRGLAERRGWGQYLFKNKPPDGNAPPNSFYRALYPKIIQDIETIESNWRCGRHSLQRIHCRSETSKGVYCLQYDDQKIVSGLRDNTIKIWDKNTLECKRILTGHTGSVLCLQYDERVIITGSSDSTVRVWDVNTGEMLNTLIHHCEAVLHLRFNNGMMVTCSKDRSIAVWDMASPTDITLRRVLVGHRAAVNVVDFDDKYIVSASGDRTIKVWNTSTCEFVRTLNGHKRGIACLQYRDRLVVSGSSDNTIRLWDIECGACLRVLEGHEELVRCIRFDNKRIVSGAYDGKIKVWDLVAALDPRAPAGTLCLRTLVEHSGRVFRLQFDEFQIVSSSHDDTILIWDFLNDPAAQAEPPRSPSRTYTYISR
UniProt P05923: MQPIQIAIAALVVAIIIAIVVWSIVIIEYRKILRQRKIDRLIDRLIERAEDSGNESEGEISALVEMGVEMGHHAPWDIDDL
UniProt P03522: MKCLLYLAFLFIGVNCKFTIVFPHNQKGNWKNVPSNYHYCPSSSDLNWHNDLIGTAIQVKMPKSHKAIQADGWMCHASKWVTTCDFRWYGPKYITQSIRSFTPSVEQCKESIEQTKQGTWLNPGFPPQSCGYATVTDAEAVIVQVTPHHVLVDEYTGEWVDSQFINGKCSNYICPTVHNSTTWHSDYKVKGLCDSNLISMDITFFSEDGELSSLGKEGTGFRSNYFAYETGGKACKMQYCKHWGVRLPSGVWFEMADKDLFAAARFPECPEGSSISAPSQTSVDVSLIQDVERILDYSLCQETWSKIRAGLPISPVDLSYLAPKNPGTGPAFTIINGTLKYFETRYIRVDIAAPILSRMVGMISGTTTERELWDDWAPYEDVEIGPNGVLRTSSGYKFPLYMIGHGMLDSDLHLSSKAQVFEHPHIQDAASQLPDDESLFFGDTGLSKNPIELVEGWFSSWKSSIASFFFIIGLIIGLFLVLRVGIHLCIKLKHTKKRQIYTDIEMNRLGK

Target: FLAG-tagged human β-TrCP1 (human) (UniProt Q9Y297)
Test: co-IP

## Vpu-VSV-G-TMD (from UniProt P05923;P03522)
  binding: binds
